The target in test [1] is T1, recombinant catalase 2 (rCAT2), N-terminally 6xHis-tagged (A. thaliana) (UniProt P25819).
T1 sequence: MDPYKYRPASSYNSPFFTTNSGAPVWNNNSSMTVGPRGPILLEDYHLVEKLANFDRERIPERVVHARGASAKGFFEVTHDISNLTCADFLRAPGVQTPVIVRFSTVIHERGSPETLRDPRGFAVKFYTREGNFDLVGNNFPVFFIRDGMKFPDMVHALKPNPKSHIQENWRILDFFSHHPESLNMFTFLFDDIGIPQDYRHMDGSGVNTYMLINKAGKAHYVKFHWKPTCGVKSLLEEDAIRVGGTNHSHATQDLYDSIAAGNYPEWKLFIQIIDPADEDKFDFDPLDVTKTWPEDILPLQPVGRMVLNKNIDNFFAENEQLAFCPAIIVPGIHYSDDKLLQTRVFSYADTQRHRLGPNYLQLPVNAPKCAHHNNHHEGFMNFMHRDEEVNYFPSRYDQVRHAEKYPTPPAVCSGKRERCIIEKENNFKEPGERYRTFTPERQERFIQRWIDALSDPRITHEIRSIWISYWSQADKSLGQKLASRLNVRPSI
Briefly: SPR; Biacore T100, 20 °C, Series S CM5 or NTA sensor chips; rAtPNP-A and rCAT2 in both ligand-analyte configurations; both purified.

The chains behind the UniProt entries cited, without tags or fusion partners. Where a name states a change or a piece, a line headed by the entry shows the natural chain unless it says otherwise.
UniProt Q9ZV52: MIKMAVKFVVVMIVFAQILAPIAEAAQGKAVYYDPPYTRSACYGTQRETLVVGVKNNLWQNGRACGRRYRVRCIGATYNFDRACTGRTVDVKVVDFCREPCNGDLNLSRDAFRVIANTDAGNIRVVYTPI

Test [2] addresses T2, recombinant catalase 2 (CAT2), N-terminally 6xHis-tagged (Arabidopsis thaliana) (UniProt P25819).
T2 sequence: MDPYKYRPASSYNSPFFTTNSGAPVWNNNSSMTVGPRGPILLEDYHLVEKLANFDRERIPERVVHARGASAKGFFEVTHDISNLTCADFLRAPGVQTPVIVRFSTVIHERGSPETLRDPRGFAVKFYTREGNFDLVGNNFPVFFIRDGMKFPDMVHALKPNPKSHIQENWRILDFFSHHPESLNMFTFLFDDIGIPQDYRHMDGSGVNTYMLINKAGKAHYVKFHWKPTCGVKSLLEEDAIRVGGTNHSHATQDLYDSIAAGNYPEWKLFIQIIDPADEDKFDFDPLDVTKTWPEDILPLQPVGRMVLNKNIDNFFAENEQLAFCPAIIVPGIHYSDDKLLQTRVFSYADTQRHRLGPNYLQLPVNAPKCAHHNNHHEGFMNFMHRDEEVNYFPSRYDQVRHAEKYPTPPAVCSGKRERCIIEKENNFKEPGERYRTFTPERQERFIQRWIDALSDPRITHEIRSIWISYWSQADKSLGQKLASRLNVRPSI
Nature of the test: SPR; purified rCAT2 immobilised by amine coupling on a CM5 chip, reference surface blank activated; purified rAtPNP-A as analyte; 20 °C; both purified. For orientation: In SPR one partner is held on a chip, and binding of the other changes the refractive index at the surface.

In test [3] the target is recombinant AtPNP-A protein, N-terminally 6xHis-tagged (Arabidopsis thaliana) (UniProt Q9ZV52). Nature of the test: SPR; inverted configuration: purified rAtPNP-A immobilised by amine coupling on a CM5 chip; purified rCAT2 as analyte; 20 °C; both purified.

No constants are given. Whether binding was seen depends on the method and setting. A result given as binding can be weak or reduced; the word gives no strength. Tags and fused reporters may be left off the sequences shown.

With “recombinant AtPNP-A (rAtPNP-A), N-terminally 6xHis-tagged (from UniProt Q9ZV52)”, the binding result in test [1] is recorded as “binds”.
Consider “recombinant AtPNP-A protein, N-terminally 6xHis-tagged (from UniProt Q9ZV52)”, for which the binding result in test [2] was “binds”.

B1: recombinant catalase 2 (CAT2), N-terminally 6xHis-tagged (enzyme, UniProt P25819 1-492)
chain: MDPYKYRPASSYNSPFFTTNSGAPVWNNNSSMTVGPRGPILLEDYHLVEKLANFDRERIPERVVHARGASAKGFFEVTHDISNLTCADFLRAPGVQTPVIVRFSTVIHERGSPETLRDPRGFAVKFYTREGNFDLVGNNFPVFFIRDGMKFPDMVHALKPNPKSHIQENWRILDFFSHHPESLNMFTFLFDDIGIPQDYRHMDGSGVNTYMLINKAGKAHYVKFHWKPTCGVKSLLEEDAIRVGGTNHSHATQDLYDSIAAGNYPEWKLFIQIIDPADEDKFDFDPLDVTKTWPEDILPLQPVGRMVLNKNIDNFFAENEQLAFCPAIIVPGIHYSDDKLLQTRVFSYADTQRHRLGPNYLQLPVNAPKCAHHNNHHEGFMNFMHRDEEVNYFPSRYDQVRHAEKYPTPPAVCSGKRERCIIEKENNFKEPGERYRTFTPERQERFIQRWIDALSDPRITHEIRSIWISYWSQADKSLGQKLASRLNVRPSI
Consider B1, for which, in test [3], the binding entry is given as “binds”.

(Values after PMC7665192, “A natriuretic peptide from Arabidopsis thaliana (AtPNP-A) can modulate catalase 2 activity” (Scientific Reports, 2020).)
